We go through two molecules from doi:10.1101/2025.03.10.25323421.

By UniProt entry, the sequences of proteins in these tests, tags left out.
UniProt P23769: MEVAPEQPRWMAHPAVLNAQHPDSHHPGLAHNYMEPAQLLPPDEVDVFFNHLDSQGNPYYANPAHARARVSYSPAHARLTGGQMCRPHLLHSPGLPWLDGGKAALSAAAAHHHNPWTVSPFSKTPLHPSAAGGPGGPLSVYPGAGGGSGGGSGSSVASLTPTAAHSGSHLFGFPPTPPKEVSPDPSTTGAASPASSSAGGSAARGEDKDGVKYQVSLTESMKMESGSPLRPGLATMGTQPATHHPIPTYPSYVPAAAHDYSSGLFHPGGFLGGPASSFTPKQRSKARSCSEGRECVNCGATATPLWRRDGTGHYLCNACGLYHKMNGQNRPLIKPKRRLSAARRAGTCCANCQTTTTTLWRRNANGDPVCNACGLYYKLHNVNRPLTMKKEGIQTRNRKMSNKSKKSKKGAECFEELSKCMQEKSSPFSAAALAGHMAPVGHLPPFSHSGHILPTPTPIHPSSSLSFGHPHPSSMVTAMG
UniProt Q92786: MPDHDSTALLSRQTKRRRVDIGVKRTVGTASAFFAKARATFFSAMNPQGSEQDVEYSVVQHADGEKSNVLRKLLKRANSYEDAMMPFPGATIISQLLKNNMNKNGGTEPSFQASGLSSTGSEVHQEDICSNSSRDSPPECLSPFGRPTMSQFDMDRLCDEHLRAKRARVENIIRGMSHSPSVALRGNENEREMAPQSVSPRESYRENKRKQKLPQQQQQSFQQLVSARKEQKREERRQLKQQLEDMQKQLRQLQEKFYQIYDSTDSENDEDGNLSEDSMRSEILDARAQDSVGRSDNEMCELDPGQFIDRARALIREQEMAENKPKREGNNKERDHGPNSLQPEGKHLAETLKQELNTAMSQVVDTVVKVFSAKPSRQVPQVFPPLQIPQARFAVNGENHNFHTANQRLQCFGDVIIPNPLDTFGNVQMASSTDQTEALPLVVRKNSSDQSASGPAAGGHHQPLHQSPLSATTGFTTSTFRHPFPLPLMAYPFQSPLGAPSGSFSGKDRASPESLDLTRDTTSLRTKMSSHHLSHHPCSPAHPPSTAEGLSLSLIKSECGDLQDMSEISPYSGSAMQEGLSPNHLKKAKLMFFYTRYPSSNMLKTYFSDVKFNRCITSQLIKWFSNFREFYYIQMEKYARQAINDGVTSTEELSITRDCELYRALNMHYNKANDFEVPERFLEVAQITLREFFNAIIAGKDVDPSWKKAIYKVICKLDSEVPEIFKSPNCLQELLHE

These are yes or no findings as the source states them, for the method shown. In cells and extracts the contact can be indirect. Some entries that bind do so weakly or less than the wild type.

Assay [1] has as its target GATA2 (human (endogenous in HDLEC)) (UniProt P23769). Put plainly: proximity ligation.
For assay [2], the target named is prospero-related homeobox-1 (PROX1) (human (endogenous in HDLEC)) (UniProt Q92786). Put plainly: proximity ligation.

As for “prospero-related homeobox-1 (PROX1) (from UniProt Q92786 1-737)”, in assay [1], the binding result was “binds”.

B1: ERG (ETS-family transcription factor) (protein, UniProt P11308-4 1-479)
chain: MASTIKEALSVVSEDQSLFECAYGTPHLAKTEMTASSSSDYGQTSKMSPRVPQQDWLSQPPARVTIKMECNPSQVNGSRNSPDECSVAKGGKMVGSPDTVGMNYGSYMEEKHMPPPNMTTNERRVIVPADPTLWSTDHVRQWLEWAVKEYGLPDVNILLFQNIDGKELCKMTKDDFQRLTPSYNADILLSHLHYLRETPLPHLTSDDVDKALQNSPRLMHARNTGGAAFIFPNTSVYPEATQRITTRPDLPYEPPRRSAWTGHGHPTPQSKAAQPSPSTVPKTEDQRPQLDPYQILGPTSSRLANPGSGQIQLWQFLLELLSDSSNSSCITWEGTNGEFKMTDPDEVARRWGERKSKPNMNYDKLSRALRYYYDKNIMTKVHGKRYAYKFDFHGIAQALQPHPPESSLYKYPSDLPYMGSYHAHPQKMNFVAPHPPALPVTSSSFFAAPNPYWNSPTGGIYPNTRLPTSHMPSHLGTYY
Turning to B1, the binding entry in assay [1] and in assay [2] was “binds” in each case.
